Results from publication PMC4520572, “Processive ATP-driven Substrate Disassembly by the N-Ethylmaleimide-sensitive Factor (NSF) Molecular Machine*^([image sbox.jpg])^♦” (The Journal of Biological Chemistry, 2013).

Target: the molecule itself
Assay: SDS-PAGE of an SDS-stable oligomer; purified protein at 0.5 μg/μl in Laemmli sample buffer with DTT, boiled or not, Any kD denaturing polyacrylamide gel

B1: GCN4 tetramer (tandem repeat of the GCN4-pLI tetramer) (designed binder)
chain: RMKQIEDKLEEILSKLYHIENELARIKKLLGERRMKQIEDKLEEILSKLYHIENELARIKKLLGER
- stoichiometry N: 4
